No dose or concentration is given here for some results. Where a SMILES comes first, the peptide text is derived from it.
Key:
Format in all cases: cell-based
human Kv1.3 = test: Kv1.3 channel blocking, patch-clamp, literature data; details: rank by literature patch-clamp IC50 (refs 16, 47, 48)
human Kv1.2 = test: Kv1.2 channel blocking, patch-clamp, literature data; details: rank by literature patch-clamp IC50 (refs 36, 49, 48)
human Kv1.1 = test: Kv1.1 channel blocking, patch-clamp, literature data; details: rank by literature patch-clamp IC50 (refs 49, 48, 36)

SMILES: CC[C@H](C)[C@@H]1NC(=O)CNC(=O)[C@H](Cc2ccccc2)NC(=O)[C@H](CCC(N)=O)NC(=O)[C@H](C)NC(=O)[C@H](CCCCN)NC(=O)[C@@H]2CSSC[C@@H](C(=O)N[C@@H](Cc3ccc(O)cc3)C(=O)N3CCC[C@H]3C(=O)N[C@@H](Cc3c[nH]cn3)C(=O)O)NC(=O)[C@H](CCCCN)NC(=O)[C@@H]3CSSC[C@H](NC(=O)[C@H](CCC(N)=O)NC(=O)[C@H](CCCCN)NC(=O)[C@@H]4CCCN4C(=O)[C@H](CO)NC(=O)[C@H]([C@@H](C)O)NC(=O)[C@@H](NC(=O)[C@H](CCCCN)NC(=O)[C@@H](NC(=O)[C@H](CC(=O)O)NC(=O)[C@@H](NC(=O)[C@@H](NC(=O)[C@@H](N)[C@@H](C)O)C(C)C)[C@@H](C)CC)C(C)C)CSSC[C@H](NC(=O)[C@H](CCCCN)NC(=O)[C@H](C)NC(=O)CNC(=O)[C@H](C)NC(=O)[C@H](CCCNC(=N)N)NC1=O)C(=O)N[C@@H](CCSC)C(=O)N[C@@H](CC(N)=O)C(=O)NCC(=O)N[C@@H](CCCCN)C(=O)N3)C(=O)N[C@@H](CC(C)C)C(=O)N1CCC[C@H]1C(=O)N1CCC[C@H]1C(=O)N2 [HgTx1, Hongotoxin-1] (HELM PEPTIDE1{T.V.I.D.V.K.C.T.S.P.K.Q.C.L.P.P.C.K.A.Q.F.G.I.R.A.G.A.K.C.M.N.G.K.C.K.C.Y.P.H}$PEPTIDE1,PEPTIDE1,7:R3-29:R3|PEPTIDE1,PEPTIDE1,13:R3-34:R3|PEPTIDE1,PEPTIDE1,17:R3-36:R3$$$V2.0; N-terminus and C-terminus assumed)
- Rank, Kv1.x blocking (Kv1.3) (human Kv1.3): 2

SMILES: CC[C@H](C)[C@H](NC(=O)[C@H](C)NC(=O)[C@H](C)NC(=O)[C@H](C)N)C(=O)N[C@@H](CO)C(=O)N[C@H]1CSSC[C@@H]2NC(=O)[C@H](CCCCN)NC(=O)CNC(=O)[C@H](CC(N)=O)NC(=O)[C@H](CCCCN)NC(=O)[C@@H]3CSSC[C@@H](C(N)=O)NC(=O)[C@H](Cc4ccc(O)cc4)NC(=O)[C@H](Cc4ccc(O)cc4)NC(=O)[C@@H]4CSSC[C@H](NC(=O)[C@H](CCCCN)NC(=O)[C@@H]5CCCN5C(=O)[C@@H]5CCCN5C(=O)[C@H](CSSC[C@H](NC(=O)[C@H](CCCCN)NC(=O)[C@H](CCCNC(=N)N)NC(=O)[C@H](CC(N)=O)NC(=O)[C@H](CCSC)NC2=O)C(=O)N[C@@H](CCCCN)C(=O)N4)NC(=O)[C@H](CCC(=O)O)NC(=O)[C@@H]2CCCN2C(=O)[C@H](CO)NC(=O)CNC(=O)[C@H](C(C)C)NC1=O)C(=O)N[C@@H](CCCNC(=N)N)C(=O)N[C@@H](C)C(=O)N[C@@H](CCC(N)=O)C(=O)NCC(=O)N3 [Vm24, Vm24 toxin]
- Rank, Kv1.x blocking (Kv1.3) (human Kv1.3): 1

SMILES: CC[C@H](C)[C@H](NC(=O)[C@H](CCC(=O)O)NC(=O)[C@@H](NC(=O)CN)C(C)C)C(=O)N[C@@H](CC(N)=O)C(=O)N[C@H](C(=O)N[C@@H](CCCCN)C(=O)N[C@H]1CSSC[C@@H]2NC(=O)[C@H](CCCCN)NC(=O)CNC(=O)[C@H](Cc3ccccc3)NC(=O)[C@H](CCCNC(=N)N)NC(=O)[C@H](CCSC)NC(=O)CNC(=O)[C@H](C)NC(=O)[C@H](CC(=O)O)NC(=O)[C@H](CCCCN)NC(=O)[C@@H]3CSSC[C@@H](C(=O)N[C@H](C(=O)N4CCC[C@H]4C(=O)N[C@@H](CCCCN)C(=O)O)[C@@H](C)O)NC(=O)[C@H](Cc4c[nH]cn4)NC(=O)[C@H](CSSC[C@H](NC(=O)[C@H](CCC(N)=O)NC(=O)[C@@H]4CCCN4C(=O)[C@H](CO)NC(=O)CNC(=O)[C@H](CO)NC1=O)C(=O)N[C@@H](CC(C)C)C(=O)N[C@@H](CCCCN)C(=O)N1CCC[C@H]1C(=O)N3)NC(=O)[C@H](CCCCN)NC(=O)[C@H](CCCNC(=N)N)NC(=O)[C@H](CC(N)=O)NC(=O)[C@H](CCSC)NC2=O)C(C)C [KTX1, Kaliotoxin-1]
- Rank, Kv1.x blocking (Kv1.3) (human Kv1.3): 3
- Rank, Kv1.x blocking (Kv1.2) (human Kv1.2): 3
- Rank, Kv1.x blocking (Kv1.1) (human Kv1.1): 2

SMILES: CC[C@H](C)[C@@H]1NC(=O)[C@@H]2CSSC[C@H](NC(=O)[C@H](CO)NC(=O)[C@@H](N)C(C)C)C(=O)N[C@@H]([C@@H](C)O)C(=O)NCC(=O)N[C@@H](CO)C(=O)N[C@@H](CCCCN)C(=O)N[C@@H](CC(=O)O)C(=O)N[C@@H](CSSC[C@@H](C(=O)N[C@@H](CCCCN)C(=O)N[C@H]3CSSC[C@@H](C(N)=O)NC(=O)CNC(=O)[C@H](Cc4ccc(O)cc4)NC3=O)NC(=O)[C@H](CO)NC(=O)[C@H](CCCCN)NC(=O)[C@H](CC(N)=O)NC1=O)C(=O)N[C@@H](Cc1ccc(O)cc1)C(=O)N[C@@H](C)C(=O)N1CCC[C@H]1C(=O)N[C@H]1CSSC[C@H](NC(=O)CNC(=O)[C@H]([C@@H](C)O)NC(=O)[C@H](CCC(N)=O)NC(=O)[C@H](CCCCN)NC(=O)[C@H](CCCNC(=N)N)NC1=O)C(=O)N1CCC[C@H]1C(=O)N[C@@H](CC(N)=O)C(=O)N[C@@H](C)C(=O)N[C@@H](CCCCN)C(=O)N2 [MTX, Maurotoxin] (HELM PEPTIDE1{V.S.C.T.G.S.K.D.C.Y.A.P.C.R.K.Q.T.G.C.P.N.A.K.C.I.N.K.S.C.K.C.Y.G.C.[am]}$PEPTIDE1,PEPTIDE1,3:R3-24:R3|PEPTIDE1,PEPTIDE1,9:R3-29:R3|PEPTIDE1,PEPTIDE1,13:R3-19:R3|PEPTIDE1,PEPTIDE1,31:R3-34:R3$$$V2.0; N-terminus and C-terminus assumed)
- Rank, Kv1.x blocking (Kv1.2) (human Kv1.2): 1
- Rank, Kv1.x blocking (Kv1.1) (human Kv1.1): 3

SMILES: CC[C@H](C)[C@@H]1NC(=O)[C@@H](NC(=O)[C@H](CO)NC(=O)[C@@H](N)CCCNC(=N)N)CSSC[C@@H](C(=O)O)NC(=O)[C@H]([C@@H](C)O)NC(=O)CNC(=O)[C@@H]2CSSC[C@@H]3NC(=O)[C@H](CCC(N)=O)NC(=O)[C@H](Cc4ccccc4)NC(=O)[C@H](C)NC(=O)[C@H]([C@@H](C)O)NC(=O)[C@H](CSSC[C@H](NC(=O)[C@H](Cc4ccccc4)NC(=O)[C@H](CO)NC(=O)[C@H](CC(C)C)NC(=O)[C@H](CCCNC(=N)N)NC(=O)[C@H](Cc4ccc(O)cc4)NC(=O)[C@H](CCCCN)NC(=O)[C@H](CCSC)NC(=O)[C@H](CO)NC(=O)[C@H](Cc4c[nH]cn4)NC(=O)[C@H](CCCCN)NC3=O)C(=O)N[C@@H](CCCNC(=N)N)C(=O)N[C@@H](CCCCN)C(=O)N[C@@H]([C@@H](C)O)C(=O)N2)NC(=O)[C@H](CCCNC(=N)N)NC(=O)[C@H](CO)NC(=O)[C@H](CCCCN)NC(=O)[C@@H]2CCCN2C(=O)[C@H]([C@@H](C)CC)NC(=O)[C@H]([C@@H](C)O)NC(=O)[C@H](CC(=O)O)NC1=O [ShK, Stichodactyla toxin]
- Rank, Kv1.x blocking (Kv1.2) (human Kv1.2): 2
- Rank, Kv1.x blocking (Kv1.1) (human Kv1.1): 1
